Data published in article doi:10.1101/2020.11.30.405449.
No constants are given. Whether binding was seen depends on the method and setting. In cells and extracts the contact can be indirect. Some binding calls cover weakened binding; strength is not graded here.

By UniProt entry, the sequences of proteins in these tests, tags left out.
UniProt Q9UPY3: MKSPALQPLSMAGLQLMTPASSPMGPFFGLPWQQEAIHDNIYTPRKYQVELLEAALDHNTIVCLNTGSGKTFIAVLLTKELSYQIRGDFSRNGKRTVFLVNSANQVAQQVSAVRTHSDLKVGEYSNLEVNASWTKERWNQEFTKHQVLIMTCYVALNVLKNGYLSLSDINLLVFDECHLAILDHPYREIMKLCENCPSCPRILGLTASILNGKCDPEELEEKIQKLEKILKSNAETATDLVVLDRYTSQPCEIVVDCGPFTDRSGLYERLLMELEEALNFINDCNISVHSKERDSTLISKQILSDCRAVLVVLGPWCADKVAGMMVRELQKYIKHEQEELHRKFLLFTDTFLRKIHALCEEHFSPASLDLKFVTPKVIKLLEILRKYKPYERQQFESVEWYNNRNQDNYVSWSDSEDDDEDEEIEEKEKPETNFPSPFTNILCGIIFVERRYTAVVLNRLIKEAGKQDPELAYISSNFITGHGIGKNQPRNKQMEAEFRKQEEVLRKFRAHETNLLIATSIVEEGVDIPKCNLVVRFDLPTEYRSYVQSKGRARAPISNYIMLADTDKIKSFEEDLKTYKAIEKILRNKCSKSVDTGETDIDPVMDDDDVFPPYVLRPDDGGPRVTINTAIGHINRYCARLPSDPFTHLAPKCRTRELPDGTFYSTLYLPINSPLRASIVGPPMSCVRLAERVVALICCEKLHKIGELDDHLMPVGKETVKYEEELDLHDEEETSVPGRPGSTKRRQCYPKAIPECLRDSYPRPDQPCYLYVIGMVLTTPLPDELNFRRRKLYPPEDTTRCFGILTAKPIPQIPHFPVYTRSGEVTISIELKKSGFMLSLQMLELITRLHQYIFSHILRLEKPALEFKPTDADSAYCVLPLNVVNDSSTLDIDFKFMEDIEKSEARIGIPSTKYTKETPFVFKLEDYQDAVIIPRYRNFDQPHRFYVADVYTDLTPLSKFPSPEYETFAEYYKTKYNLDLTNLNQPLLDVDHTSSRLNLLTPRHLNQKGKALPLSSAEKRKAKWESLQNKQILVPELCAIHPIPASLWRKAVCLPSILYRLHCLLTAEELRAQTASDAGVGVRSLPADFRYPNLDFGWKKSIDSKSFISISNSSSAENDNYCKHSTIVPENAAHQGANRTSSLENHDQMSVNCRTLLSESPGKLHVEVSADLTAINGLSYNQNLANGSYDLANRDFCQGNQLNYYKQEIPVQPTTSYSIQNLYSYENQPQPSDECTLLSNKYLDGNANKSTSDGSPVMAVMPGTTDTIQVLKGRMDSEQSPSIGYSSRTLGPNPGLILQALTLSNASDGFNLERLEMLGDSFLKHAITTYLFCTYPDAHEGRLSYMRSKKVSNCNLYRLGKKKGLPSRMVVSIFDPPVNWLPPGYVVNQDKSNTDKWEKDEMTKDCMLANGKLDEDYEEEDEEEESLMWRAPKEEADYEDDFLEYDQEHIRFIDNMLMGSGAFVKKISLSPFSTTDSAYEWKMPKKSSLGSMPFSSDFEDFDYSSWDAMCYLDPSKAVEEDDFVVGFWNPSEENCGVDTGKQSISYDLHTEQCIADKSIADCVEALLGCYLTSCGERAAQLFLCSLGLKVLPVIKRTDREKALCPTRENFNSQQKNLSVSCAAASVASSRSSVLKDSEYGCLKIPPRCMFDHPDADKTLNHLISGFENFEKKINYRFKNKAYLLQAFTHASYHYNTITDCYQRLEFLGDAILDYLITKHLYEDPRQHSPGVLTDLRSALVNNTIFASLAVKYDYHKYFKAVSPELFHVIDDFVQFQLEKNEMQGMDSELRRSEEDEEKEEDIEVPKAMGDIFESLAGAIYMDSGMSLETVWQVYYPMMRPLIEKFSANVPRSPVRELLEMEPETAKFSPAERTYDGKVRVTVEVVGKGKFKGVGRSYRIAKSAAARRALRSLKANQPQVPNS
UniProt Q9UKV8: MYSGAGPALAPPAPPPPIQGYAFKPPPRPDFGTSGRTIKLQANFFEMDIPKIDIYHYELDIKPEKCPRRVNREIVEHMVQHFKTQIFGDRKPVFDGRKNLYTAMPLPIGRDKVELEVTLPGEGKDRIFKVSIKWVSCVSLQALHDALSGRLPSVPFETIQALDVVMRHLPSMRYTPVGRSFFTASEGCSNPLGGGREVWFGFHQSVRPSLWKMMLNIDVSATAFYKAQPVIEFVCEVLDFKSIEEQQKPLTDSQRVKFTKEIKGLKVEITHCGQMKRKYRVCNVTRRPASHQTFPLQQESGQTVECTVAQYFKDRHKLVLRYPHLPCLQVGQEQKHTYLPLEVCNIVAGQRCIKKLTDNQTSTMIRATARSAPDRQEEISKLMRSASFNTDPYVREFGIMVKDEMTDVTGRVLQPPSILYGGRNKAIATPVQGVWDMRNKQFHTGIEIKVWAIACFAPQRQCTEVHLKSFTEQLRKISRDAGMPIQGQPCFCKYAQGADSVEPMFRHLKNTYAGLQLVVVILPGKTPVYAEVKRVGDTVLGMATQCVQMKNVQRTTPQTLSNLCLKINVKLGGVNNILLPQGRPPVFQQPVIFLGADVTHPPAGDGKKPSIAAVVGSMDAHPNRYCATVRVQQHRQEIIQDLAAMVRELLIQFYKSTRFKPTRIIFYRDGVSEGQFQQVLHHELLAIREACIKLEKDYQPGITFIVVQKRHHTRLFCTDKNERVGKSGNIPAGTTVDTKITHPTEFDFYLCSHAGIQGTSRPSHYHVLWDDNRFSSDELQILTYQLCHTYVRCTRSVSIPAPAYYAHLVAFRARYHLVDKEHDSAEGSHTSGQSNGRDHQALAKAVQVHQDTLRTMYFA
UniProt Q8IZH2: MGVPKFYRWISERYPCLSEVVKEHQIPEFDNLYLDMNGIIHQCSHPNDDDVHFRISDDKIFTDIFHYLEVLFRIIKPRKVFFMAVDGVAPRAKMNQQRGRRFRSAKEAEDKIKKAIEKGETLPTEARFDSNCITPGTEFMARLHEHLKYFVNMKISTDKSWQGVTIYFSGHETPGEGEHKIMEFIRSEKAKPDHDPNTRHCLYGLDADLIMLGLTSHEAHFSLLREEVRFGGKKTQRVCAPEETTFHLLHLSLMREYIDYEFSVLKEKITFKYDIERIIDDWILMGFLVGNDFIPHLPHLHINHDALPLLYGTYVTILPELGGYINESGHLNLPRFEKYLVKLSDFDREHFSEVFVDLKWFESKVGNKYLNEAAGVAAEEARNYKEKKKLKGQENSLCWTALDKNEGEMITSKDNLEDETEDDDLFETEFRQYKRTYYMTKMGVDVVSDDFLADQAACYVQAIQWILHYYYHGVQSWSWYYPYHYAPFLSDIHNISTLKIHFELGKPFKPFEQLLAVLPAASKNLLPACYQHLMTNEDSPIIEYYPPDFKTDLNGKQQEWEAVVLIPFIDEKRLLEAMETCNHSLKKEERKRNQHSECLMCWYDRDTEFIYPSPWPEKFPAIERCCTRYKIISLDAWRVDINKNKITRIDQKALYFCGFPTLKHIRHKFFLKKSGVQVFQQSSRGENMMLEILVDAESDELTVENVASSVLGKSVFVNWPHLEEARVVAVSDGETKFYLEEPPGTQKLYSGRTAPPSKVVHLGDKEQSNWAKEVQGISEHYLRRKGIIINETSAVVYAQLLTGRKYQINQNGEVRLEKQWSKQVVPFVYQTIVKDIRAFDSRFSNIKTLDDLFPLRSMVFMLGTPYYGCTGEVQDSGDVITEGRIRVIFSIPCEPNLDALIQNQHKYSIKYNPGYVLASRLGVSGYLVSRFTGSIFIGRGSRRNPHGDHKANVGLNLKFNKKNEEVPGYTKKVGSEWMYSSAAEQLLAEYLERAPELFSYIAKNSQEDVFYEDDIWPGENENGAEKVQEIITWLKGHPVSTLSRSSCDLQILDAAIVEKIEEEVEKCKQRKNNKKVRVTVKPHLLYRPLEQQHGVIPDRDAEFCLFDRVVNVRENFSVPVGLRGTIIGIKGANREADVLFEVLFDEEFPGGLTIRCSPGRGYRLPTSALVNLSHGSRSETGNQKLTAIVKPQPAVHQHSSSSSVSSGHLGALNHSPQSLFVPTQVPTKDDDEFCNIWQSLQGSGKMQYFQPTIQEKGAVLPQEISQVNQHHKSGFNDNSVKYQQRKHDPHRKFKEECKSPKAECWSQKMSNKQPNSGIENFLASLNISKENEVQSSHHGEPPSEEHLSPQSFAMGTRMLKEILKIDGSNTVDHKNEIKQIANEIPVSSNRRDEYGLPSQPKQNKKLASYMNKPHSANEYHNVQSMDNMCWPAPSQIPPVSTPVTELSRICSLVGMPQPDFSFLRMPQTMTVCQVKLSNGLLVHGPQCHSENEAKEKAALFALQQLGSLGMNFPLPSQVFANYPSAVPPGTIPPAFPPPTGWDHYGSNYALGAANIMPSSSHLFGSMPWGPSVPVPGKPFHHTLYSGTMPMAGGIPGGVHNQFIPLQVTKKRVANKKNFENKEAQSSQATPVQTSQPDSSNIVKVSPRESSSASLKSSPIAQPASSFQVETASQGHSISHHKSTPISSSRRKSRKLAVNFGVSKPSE

Experiments:
Experiment in all cases: co-IP
[1] = target: NH-Dicer1, expressed in HEK293 cells (UniProt Q9UPY3)
[2] = target: Dicer1, endogenous in Huh7 cells (human (endogenous in Huh7)) (UniProt Q9UPY3)
[3] = target: NH-Dicer1 (HA-tagged Dicer1), transiently expressed in Huh7 cells (UniProt Q9UPY3)
[4] = target: FA-Ago2, transiently expressed in Huh7 cells (UniProt Q9UKV8)

Ago2, endogenous in HEK293 cells (from UniProt Q9UKV8 1-859)
binding [1]: binds

Ago2, endogenous in Huh7 cells (from UniProt Q9UKV8 1-859)
binding [2]: binds
binding [3]: binds

Xrn1, endogenous in Huh7 cells (from UniProt Q8IZH2 1-1706) (enzyme)
binding [4]: binds
